Measurements reported in PubChem BioAssay AID720505 (Drosophila RNAi Screening Center, 2013)
Aim: 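Knock-downs that reduce calcium influx once internal stores are emptied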 (primary screen). System: Drosophila S2R+ cells. Knock-down reagent: long dsRNA against Drosophila genes. Treatment: thapsigargin (2 µM) in calcium-free buffer to empty internal stores, then 2 mM calcium added back. Read-out: 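Stores emptied by 2 µM thapsigargin without calcium, then 2 mM calcium re-added; fluo-4 fluorescence followed by FLIPR in 384-well plates, per-well averaged endpoint, raw; two screen passes, some wells retested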. Scale: calcium signal: higher = more calcium entry after store depletion. Call rule: 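Knock-downs counted as hits when calcium entry dropped relative to STIM1 positive and Rho1 negative controls present on each plate; roughly 1500 genes called, with reductions of differing size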. Meaning of the calls: active = called as lowering calcium entry; inactive = not called.
The deposit covers about 20,000 reagents; below is an unselected part of those with a known target gene and a result. Over the whole deposit, about 2,100 (10%) are marked active. 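Raw plate signals without normalisation; calls rest on control-based scores that were not deposited; replicate 2 separates called from uncalled poorly.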 Entries without a mark were called inactive. A plus sign joins genes that one reagent is predicted to hit. Not given: the amount of reagent, the time to read-out.

The opening 2 entries, to show the layout:
CG32069 + Blos2 [DRSC10621]: calcium signal, replicate 1 = 86.3; calcium signal, replicate 2 = 75.2
CG30284 [DRSC22150]: calcium signal, replicate 1 = 89.6; calcium signal, replicate 2 = 217

Main list, from the start:
CG32069 + Blos2 [DRSC10621]: calcium signal, replicate 1 = 86.3; calcium signal, replicate 2 = 75.2
CG30284 [DRSC22150]: calcium signal, replicate 1 = 89.6; calcium signal, replicate 2 = 217
Cyp6u1 (Cytochrome P450 6u1) [DRSC05015]: calcium signal, replicate 1 = 152; calcium signal, replicate 2 = 78.9
CG5342 [DRSC15776]: calcium signal, replicate 1 = 133; calcium signal, replicate 2 = 140
AGO2 (Argonaute 2) [DRSC09999]: calcium signal, replicate 1 = 66.7; calcium signal, replicate 2 = 108
AGO2 (Argonaute 2) [DRSC10847]: calcium signal, replicate 1 = 125; calcium signal, replicate 2 = 68.1
CG10764 [DRSC06000]: calcium signal, replicate 1 = 139; calcium signal, replicate 2 = 112
CG15282 [DRSC22620]: calcium signal, replicate 1 = 118; calcium signal, replicate 2 = 216
CG15282 [DRSC23090]: calcium signal, replicate 1 = 92.4; calcium signal, replicate 2 = 132
Hcs (Holocarboxylase synthetase) [DRSC12256]: calcium signal, replicate 1 = 124; calcium signal, replicate 2 = 166
CG30259 [DRSC04164]: calcium signal, replicate 1 = 148; calcium signal, replicate 2 = 124
CG30259 [DRSC04165]: calcium signal, replicate 1 = 141; calcium signal, replicate 2 = 128
CG10286 [DRSC12520]: calcium signal, replicate 1 = 117; calcium signal, replicate 2 = 147
CG8519 [DRSC10985]: calcium signal, replicate 1 = 81.2; calcium signal, replicate 2 = 60.7
Mst84Dd (Male-specific RNA 84Dd) [DRSC12600]: calcium signal, replicate 1 = 152; calcium signal, replicate 2 = 144
CG4970 [DRSC02796]: calcium signal, replicate 1 = 143; calcium signal, replicate 2 = 166
CG34236 [DRSC05435]: calcium signal, replicate 1 = 100; calcium signal, replicate 2 = 161
CG16995 [DRSC00480]: calcium signal, replicate 1 = 154; calcium signal, replicate 2 = 147
CG2260 [DRSC18223]: calcium signal, replicate 1 = 86.7; calcium signal, replicate 2 = 82.3
